Laboratory results published in the supplement of paper PMC4604168 (melanoma cell lines).
The other results are listed elsewhere or left out. Single values are uncertain, as repeats are few or missing.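 The apoptosis fraction was the count of cleaved-PARP antibody-stained nuclei relative to all DNA-stained nuclei, imaged in 1,536-well plates. Screening doses were set so most cells survived, and baseline and induced cleaved-PARP levels vary greatly across cell lines.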

Columns and labels:
Experiment in all cases: cleaved PARP positive nuclei fraction relative to DMSO control; melanoma cells; higher = more apoptosis
Details in all cases: library dose: low library concentration; 72 h
501Mel = test system: 501Mel
A101D = test system: A101D
A2058 = test system: A2058
A375 = test system: A375
C32 = test system: C32
CBRC008 = test system: CBRC008 (line from a melanoma biopsy)
CBRC014 = test system: CBRC014 (line from a melanoma biopsy)
CBRC016 = test system: CBRC016 (line from a melanoma biopsy)
CBRC017 = test system: CBRC017 (line from a melanoma biopsy)
CBRC034 = test system: CBRC034 (line from a melanoma biopsy)
COLO792 = test system: COLO792
COLO800 = test system: COLO800
COLO829 = test system: COLO829
G361 = test system: G361
IPC-298 = test system: IPC-298
IST-MEL1 = test system: IST-MEL1
LB2518-MEL = test system: LB2518-MEL
LOXIMVI = test system: LOXIMVI
MEL-HO = test system: MEL-HO

SMILES | cleaved PARP positive nuclei fraction (501Mel) | cleaved PARP positive nuclei fraction (A101D) | cleaved PARP positive nuclei fraction (A2058) | cleaved PARP positive nuclei fraction (A375) | cleaved PARP positive nuclei fraction (C32) | cleaved PARP positive nuclei fraction (CBRC008) | cleaved PARP positive nuclei fraction (CBRC014) | cleaved PARP positive nuclei fraction (CBRC016) | cleaved PARP positive nuclei fraction (CBRC017) | cleaved PARP positive nuclei fraction (CBRC034) | cleaved PARP positive nuclei fraction (COLO792) | cleaved PARP positive nuclei fraction (COLO800) | cleaved PARP positive nuclei fraction (COLO829) | cleaved PARP positive nuclei fraction (G361) | cleaved PARP positive nuclei fraction (IPC-298) | cleaved PARP positive nuclei fraction (IST-MEL1) | cleaved PARP positive nuclei fraction (LB2518-MEL) | cleaved PARP positive nuclei fraction (LOXIMVI) | cleaved PARP positive nuclei fraction (MEL-HO)
CS(=O)(=O)c1ccc(C(=O)Nc2ccc(Cl)c(-c3ccccn3)c2)c(Cl)c1 [vismodegib] + NC1(c2ccc(-c3nc4ccn5c(=O)[nH]nc5c4cc3-c3ccccc3)cc2)CCC1 [MK2206] (first compound 1 µM, partner dose 0.4 µM) | 101% | 98.5% | 62.3% | 340% | 76.7% | 102% | 74.6% | 46% | 70.4% | 63.3% | 244% | 43.5% | 17.4% | 245% | 41.5% | 66.3% | 211% | 114% | 45.6%
CCCCCCCCc1ccc(CCC(N)(CO)CO)cc1 [fingolimod] + O=C(O)c1ccc2c(c1)nc(Nc1cccc(Cl)c1)c1ccncc12 [CX4945] (first compound 2 µM, partner dose 0.4 µM) | 281% | 146% | 99.9% | 323% | 84.5% | 74.4% | 93.9% | 63% | 140% | 37.3% | 104% | 26.3% | 123% | 69% | 27.4% | 37.9% | 46.5% | 60.3% | 37.2%
NC1(c2ccc(-c3nc4ccn5c(=O)[nH]nc5c4cc3-c3ccccc3)cc2)CCC1 + O=C(O)[C@@H]1[O][Sb](=[O])([O][Sb]2(=[O])[O][C@H]([C@H](O)CO)[C@H](O)[C@H](C(=O)O)[O]2)[O][C@H]([C@H](O)CO)[C@@H]1O [stibogluconate] (first compound 0.4 µM, partner dose 2 µM) | 52.9% | 122% | 66.4% | 110% | 69.6% | 44.1% | 75.4% | 26% | 92.5% | 112% | 77.3% | 149% | 79% | 102% | 112% | 135% | 182% | 120% | 118%
CN(c1ncccc1CNc1nc(Nc2ccc3c(c2)CC(=O)N3)ncc1C(F)(F)F)S(C)(=O)=O + CC(C)C[C@H](NC(=O)[C@H](Cc1ccccc1)NC(=O)c1cnccn1)B(O)O [Bortezomib] (first compound 0.08 µM, partner dose 0.001 µM) | 442% | 231% | 142% | 93.3% | 94% | 573% | 182% | 177% | 214% | 596% | 69.8% | 130% | 270% | 1050% | 107% | 86.9% | 209% | 199% | 59.9%
CC(=O)O[C@@]12CO[C@@H]1C[C@H](O)[C@@]1(C)C(=O)[C@H](O)C3=C(C)[C@@H](OC(=O)[C@H](O)[C@@H](NC(=O)OC(C)(C)C)c4ccccc4)C[C@@](O)([C@@H](OC(=O)c4ccccc4)[C@H]21)C3(C)C [Docetaxel] + C=C(c1ccc(C(=O)O)cc1)c1cc2c(cc1C)C(C)(C)CCC2(C)C [Bexarotene] (first compound 0.0001 µM, partner dose 2 µM) | 252% | 162% | 2160% | 2990% | 81.9% | 561% | 241% | 193% | 314% | 108% | 473% | 149% | 245% | 535% | 308% | 309% | 134% | 255% | 190%
C[C@@H](N)c1ccc(C(=O)Nc2ccnc3[nH]ccc23)cc1 + CCCCCCCCc1ccc(CCC(N)(CO)CO)cc1 [fingolimod] (first compound 0.4 µM, partner dose 2 µM) | 87.9% | 30% | 107% | 178% | 92.1% | 62.6% | 105% | 81.3% | 161% | 54.1% | 118% | 133% | 140% | 133% | 27.9% | 192% | 99.3% | 46.6% | 202%
CS(=O)(=O)c1ccc(C(=O)Nc2ccc(Cl)c(-c3ccccn3)c2)c(Cl)c1 [vismodegib] + C#Cc1cccc(Nc2ncnc3cc(OCCOC)c(OCCOC)cc23)c1 [erlotinib] (first compound 1 µM, partner dose 0.8 µM) | 93.1% | 108% | 151% | 69.1% | 81.5% | 103% | 101% | 77% | 89% | 58.1% | 91.6% | 47.3% | 93.2% | 69.7% | 30.1% | 137% | 105% | 37.6% | 222%
Cn1cnc2c(F)c(Nc3ccc(Br)cc3Cl)c(C(=O)NOCCO)cc21 [selumetinib] + C[C@@H](Oc1cc(-c2cnn(C3CCNCC3)c2)cnc1N)c1c(Cl)ccc(F)c1Cl [Crizotinib] (first compound 0.015 µM, partner dose 0.2 µM) | 1550% | 85.3% | 66.3% | 87.7% | 87.4% | 161% | 108% | 31.9% | 180% | 115% | 124% | 50.4% | 171% | 94.9% | 61.5% | 71% | 149% | 111% | 273%
CC(=O)O[C@@]12CO[C@@H]1C[C@H](O)[C@@]1(C)C(=O)[C@H](O)C3=C(C)[C@@H](OC(=O)[C@H](O)[C@@H](NC(=O)OC(C)(C)C)c4ccccc4)C[C@@](O)([C@@H](OC(=O)c4ccccc4)[C@H]21)C3(C)C [Docetaxel] + C[C@]1(c2nc3c(C(N)=O)cccc3[nH]2)CCCN1 [Veliparib] (first compound 0.0001 µM, partner dose 1.4 µM) | 132% | 104% | 2930% | 5540% | 95.5% | 580% | 137% | 160% | 252% | 106% | 408% | 507% | 254% | 494% | 322% | 154% | 169% | 128% | 77.7%
CC(=O)O[C@@]12CO[C@@H]1C[C@H](O)[C@@]1(C)C(=O)[C@H](O)C3=C(C)[C@@H](OC(=O)[C@H](O)[C@@H](NC(=O)OC(C)(C)C)c4ccccc4)C[C@@](O)([C@@H](OC(=O)c4ccccc4)[C@H]21)C3(C)C [Docetaxel] + Nc1cccc2c1CN(C1CCC(=O)NC1=O)C2=O [lenalidomide] (first compound 0.0001 µM, partner dose 1 µM) | 210% | 217% | 2210% | 2680% | 79.9% | 350% | 120% | 324% | 152% | 119% | 577% | 401% | 162% | 492% | 310% | 300% | 76.1% | 96.9% | 185%
CC(=O)O[C@@]12CO[C@@H]1C[C@H](O)[C@@]1(C)C(=O)[C@H](O)C3=C(C)[C@@H](OC(=O)[C@H](O)[C@@H](NC(=O)OC(C)(C)C)c4ccccc4)C[C@@](O)([C@@H](OC(=O)c4ccccc4)[C@H]21)C3(C)C [Docetaxel] + Nc1ncn([C@H]2C[C@H](O)[C@@H](CO)O2)c(=O)n1 [decitabine] (first compound 0.0001 µM, partner dose 0.1 µM) | 275% | 81.2% | 3330% | 1240% | 167% | 259% | 168% | 148% | 228% | 137% | 760% | 168% | 172% | 721% | 150% | 126% | 231% | 143% | 70.6%
C[C@]1(O)C[C@@H](c2nc(-c3ccc4ccc(-c5ccccc5)nc4c3)c3c(N)nccn32)C1 + CN1CCN(c2ccc3nc(-c4c(N)c5c(F)cccc5[nH]c4=O)[nH]c3c2)CC1 [Dovitinib] (first compound 0.4 µM, partner dose 0.1 µM) | 544% | 130% | 124% | 304% | 71.4% | 128% | 110% | 36.9% | 95.3% | 75% | 82.3% | 90.2% | 93.9% | 81.5% | 46.9% | 61.3% | 160% | 60.1% | 61.8%
Cn1cnc2c(F)c(Nc3ccc(Br)cc3Cl)c(C(=O)NOCCO)cc21 [selumetinib] + CNC(=O)c1cc(Oc2ccc(NC(=O)Nc3ccc(Cl)c(C(F)(F)F)c3)cc2)ccn1 [sorafenib] (first compound 0.015 µM, partner dose 0.4 µM) | 108% | 152% | 94.6% | 188% | 44% | 72.6% | 78% | 146% | 85.7% | 214% | 81.8% | 12.9% | 69.3% | 110% | 92.8% | 96.4% | 54.7% | 93.8% | 141%
C[C@@H](N)c1ccc(C(=O)Nc2ccnc3[nH]ccc23)cc1 + Nc1nc(F)nc2c1ncn2[C@@H]1O[C@H](CO)[C@@H](O)[C@@H]1O [fludarabine] (first compound 0.4 µM, partner dose 0.2 µM) | 11800% | 107% | 242% | 6850% | 78.5% | 89.8% | 122% | 41.9% | 133% | 24.7% | 125% | 52.1% | 35.9% | 122% | 128% | 63.7% | 39.9% | 131% | 106%
CN(c1ncccc1CNc1nc(Nc2ccc3c(c2)CC(=O)N3)ncc1C(F)(F)F)S(C)(=O)=O + O=C(O)[C@@H]1[O][Sb](=[O])([O][Sb]2(=[O])[O][C@H]([C@H](O)CO)[C@H](O)[C@H](C(=O)O)[O]2)[O][C@H]([C@H](O)CO)[C@@H]1O [stibogluconate] (first compound 0.08 µM, partner dose 2 µM) | 78.7% | 63.9% | 211% | 184% | 75.7% | 72% | 109% | 23.3% | 86.7% | 78.4% | 233% | 88.9% | 90% | 88.5% | 87.5% | 58.3% | 99.8% | 142% | 62.8%
C[C@]1(O)C[C@@H](c2nc(-c3ccc4ccc(-c5ccccc5)nc4c3)c3c(N)nccn32)C1 + COCC[n+]1c2c(n(Cc3cnccn3)c1C)C(=O)c1ccccc1C2=O [YM155] (first compound 0.4 µM, partner dose 0.0004 µM) | 164% | 88.2% | 80.9% | 421% | 80.6% | 358% | 112% | 142% | 103% | 110% | 167% | 102% | 31.9% | 110% | 90.7% | 86.8% | 358% | 71.2% | 82%
